About 4,300 (3.1%) of roughly 140,000 compounds were called active. Inconclusive results, whose numbers are uncertain, are shown with a selection of clear calls.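 The calls were made as follows: active = readout at or below -70, meaning at least 70% loss of cells showing the perinucleolar compartment, a nuclear body marking cancer cells; inconclusive = readout between -30 and a set limit; inactive = the rest.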
Test: High Content Assay for Compounds that inhibit the Assembly of the Perinucleolar Compartment;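 also: plate controls were DMSO wells for no effect and camptothecin positive control wells for full effect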
Conditions: PC3M PTB-GFP, PNC prevalence imaging, 16 h; at 10 µM; stronger effect = lower value
How it was run: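 Read-out is percentage of cells bearing a perinucleolar compartment, from automated 20x imaging of fixed, Hoechst-stained PC3M PTB-GFP cells. Cells were seeded 4 h, then exposed 16 h to compound (23 nl of library stock) in duplicate plates.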

Structure (SMILES) | activity change (PNC), negative = inhibition
CCOC(=O)C1CCN(S(=O)(=O)c2ccc(OCC(=O)OC)cc2)CC1 | inconclusive: -59%
O=C(Nc1ccc(S(=O)(=O)N2CCc3ccccc32)cc1)c1ccco1 | inactive: 26.4%
Cn1c(=O)c2c(ncn2CC(=O)Nc2cc(Cl)c(Cl)cc2Cl)n(C)c1=O | inconclusive: -37%
COCC(=O)Nc1nnc(C2CCCCC2)s1 | inconclusive: -39.7%
CN(C)C(=S)SCC(=O)Nc1ccc(Cl)cc1Cl | inconclusive: -33.6%
CCOc1cc(NC(=S)Nc2ccccc2OC)c(OCC)cc1NC(=O)c1ccccc1C | active: -109%
O=C(c1cn(-c2ccccc2)nc1-c1ccc(Br)cc1)N1CCOCC1 | active: -114%
CC(=O)c1ccc(Nc2ncnc3c2oc2ccccc23)cc1 | inactive: 28.9%
COC(=O)c1cc2oc(C)cc2n1CC(=O)Nc1cc(C)cc(C)c1 | inconclusive: -32.6%
Cc1cc(C)cc(N(C(=O)Cc2cccs2)C(C(=O)NC2CCCC2)c2ccc(C)o2)c1 (centres undefined) | inconclusive: -70.2%
CC1CC(=O)Nc2ccccc2N1S(=O)(=O)c1ccccc1 (centres undefined) | inconclusive: -61.9%
Nc1ccc(CN2CCCCCC2)cc1 | inconclusive: -48.5%
COc1ccccc1NC=C1C(=O)OC(C)(C)OC1=O | inactive: 46.3%
CC(C)(C)c1ccc(C(=O)NNC(=O)C(=O)N2CCCCC2)cc1 | inconclusive: -32.8%
CCOc1cccc(C2c3c(oc4cc(C)c(C)cc4c3=O)C(=O)N2CCCN(C)C)c1 (centres undefined) | inactive: -20.7%
COc1ccc(C(=S)Nc2ccccc2)cc1 | inconclusive: -37.9%
O=C(CSc1ccccn1)N1CCN(c2ccc(Cl)cc2)CC1 | inconclusive: -72.7%
COc1ccc(/C=C2\SC(=O)N(CCNC(=O)Cc3coc4cc(C)ccc34)C2=O)cc1OC | inconclusive: -46.3%
CCOC(=O)c1nn(-c2ccc(OCC)cc2)c(C)c1C(C)=O | inconclusive: -35.3%
Cc1ccc(NC(=O)CSc2nccn2Cc2ccccc2)cc1C | inconclusive: -57.2%
O=C(O)c1ccc(S(=O)(=O)NC2CCCc3ccccc32)cc1 (centres undefined) | inconclusive: -52.3%
CC(=O)OCCNc1cc(N2CCN(C)CC2)c2noc3c2c1C(=O)c1ccccc1-3 | active: -92.6%
CC(=O)c1ccc(NC(=O)N2CCN(c3cccc(Cl)c3)CC2)cc1 | inactive: 27.9%

Structure (SMILES) | activity change (PNC), negative = inhibition
O=C(CCCNS(=O)(=O)c1cccc2nsnc12)NCc1ccccc1 | inconclusive: -46.9%
O=C(O)CSC1c2ccccc2C(=O)N1c1ccccc1 (centres undefined) | inconclusive: -63%
CCOC(=O)CCCCC(=O)c1[nH]c(=O)[nH]c1Cn1ccnc1 | inconclusive: -44%
COC(=O)N/N=C/c1cc(C)n(-c2ccccc2)c1C | inactive: 5.41%
CCCCONc1ncnc2nonc12 | inconclusive: -39.2%
Cc1ccc(NC(=O)C2CCN(C(=O)NC3CCCCC3)CC2)c(C)c1 | inconclusive: -34.6%
COc1ccccc1Oc1coc2c(CN3CCN(C)CC3)c(O)ccc2c1=O | inconclusive: -62.5%
c1ccc(Cn2nnnc2CN2CCN(Cc3ccc4c(c3)OCO4)CC2)cc1 | inactive: -17.8%
Cc1ccc(C(=O)OCC(=O)Nc2ccc(N(C)C)cc2)cc1NC(=O)c1ccco1 | inconclusive: -40.4%
Cc1[nH]c2ccccc2c1C(=O)CN1CCN(C2CCCCC2)CC1 | inconclusive: -31.7%
O=C1CC(c2cccc(Oc3ccccc3)c2)NC(=O)N1 (centres undefined) | inconclusive: -66.7%
Cc1sc2nc(C3CC3)nc(N3CCN(S(=O)(=O)c4ccc(F)cc4)CC3)c2c1C | inconclusive: -76.3%
COc1ccc(C(=O)OCCNC(=O)c2c(Cl)nc3ccccn23)cc1 | inconclusive: -77.5%
CC(C)c1ccc(NC(=O)COC(=O)[C@H](CCC(N)=O)NC(=O)c2ccc(F)cc2)cc1 | inactive: -11.7%
O=C(CCC(=O)N1CCN(C2CCCC2)CC1)Nc1nnc(C(F)(F)F)s1 | inconclusive: -58.1%
O=c1oc2c(CN3CCOCC3)c(O)c(Cl)cc2c2c1CCC2 | inconclusive: -35.2%
CN(C)c1ccc(NC(=O)N2CCOCC2)cc1 | inconclusive: -45.7%
COc1ccc(C)cc1NC(=O)C(Sc1nnc2ccccn12)c1ccccc1 (centres undefined) | inconclusive: -54.6%
CCCOc1ccc(/C=N/Nc2cccc([N+](=O)[O-])c2)c(O)c1 | inconclusive: -49.5%
CCn1c(O)c(N=NC(=O)CNc2cccc(C)c2)c2ccccc21 | inconclusive: -48.8%
O=C(CSc1nc2ccccc2[nH]1)N1CCN(C(=O)c2ccco2)CC1 | inactive: 10.7%
COc1ccc(N2CCN(C3CC(=O)NC3=O)CC2)cc1 (centres undefined) | inactive: 3.01%
CCOC(=O)c1c(C)n(C)c2ccc(O)c(CN(CC)CC)c12 | inconclusive: -61.2%

Structural class: those above with an NH in an aromatic ring.
Structure (SMILES) | activity change (PNC), negative = inhibition
CCOC(=O)CCCCC(=O)c1[nH]c(=O)[nH]c1Cn1ccnc1 | inconclusive: -44%
Cc1[nH]c2ccccc2c1C(=O)CN1CCN(C2CCCCC2)CC1 | inconclusive: -31.7%
O=C(CSc1nc2ccccc2[nH]1)N1CCN(C(=O)c2ccco2)CC1 | inactive: 10.7%

The listing continues:

Structure (SMILES) | activity change (PNC), negative = inhibition
COCCn1c(C)cc(C(=O)CSc2nc3ccccc3c(=O)[nH]2)c1C | inconclusive: -34.6%
CCOC(=O)C1=C(N)OC2=C(C(=O)CCC2)C1c1ccc(C)s1 (centres undefined) | active: -107%
CC1CCCC(NC(=O)C2c3ccccc3C(=O)N2Cc2cccs2)C1C (centres undefined) | inconclusive: -57.5%
Cc1ccc(NC(=O)/C=C/c2ccc([N+](=O)[O-])s2)c(C)c1 | active: -97.5%
Clc1ccc(CN(CC2CCCO2)C(c2cccs2)c2nnnn2C2CCCC2)cc1 (centres undefined) | inconclusive: -30.7%
COc1ccc(OC)c(NC(=O)CNC(=O)Cn2c(C)cc3ccccc3c2=O)c1 | inactive: -19.5%
COc1ccc(CCNC(=O)CC2SC(=NCCc3ccccc3)NC2=O)cc1OC (centres undefined) | inconclusive: -47.5%
CCOC(=O)N1CCN(C(=O)COc2ccc(S(=O)(=O)NC3CCCCC3)cc2C)CC1 | inconclusive: -45.6%
C/C(=N/NC(=O)c1cn(-c2cccc(C)n2)cn1)c1ccc(C)cc1 | inconclusive: -50.2%
Cc1ccc(C2NC(=S)NC3=C2C(=O)CC(C)(C)C3)cc1 (centres undefined) | inconclusive: -54.7%
Cc1cccc(-n2c(C)cc(/C=C3/C(=N)N4C(c5ccccc5)=CSC4=NC3=O)c2C)c1 | inactive: 5.46%
Cc1cc(C)c2nc(Cl)c(CN(Cc3ccco3)C(=O)Nc3ccccc3C)cc2c1 | active: -90.4%
Cn1nc(C(C)(C)C)c([N+](=O)[O-])c1C(=O)NCCO | inconclusive: -33.9%
CC(C)(C)NC(=O)COC(=O)c1ccccc1Nc1ccc(SC(F)F)cc1 | inactive: 10.7%
CCOC(=O)CN(C(=O)CNC(=O)c1cccs1)C(C(=O)NC1CCCCC1)c1cccs1 (centres undefined) | inconclusive: -35.7%
Cc1nc([N+](=O)[O-])c(Sc2nc3ccccc3[nH]2)n1Cc1ccccc1 | inactive: -20.2%
COc1ccc(C2NC(c3ccc(OC)cc3)C(c3ccccc3)C(=O)C2c2ccccc2)cc1 (centres undefined) | inactive: 34%
Cn1c(N)c(C(=O)COC(=O)[C@H](Cc2ccccc2)N2C(=O)c3ccccc3C2=O)c(=O)n(C)c1=O | inconclusive: -78.8%
COc1cc(N=c2ssnc2Cl)cc(OC)c1OC | inconclusive: -47.9%
Cc1ccccc1OCc1nc2ccccc2c(=O)n1NC(=O)c1ccco1 | active: -100%
Clc1ccc(CN2CCCCCCC2)cc1 | inconclusive: -35.2%
Cc1cc(C)cc(OCc2nnc(SCC(=O)c3ccc(Br)cc3)o2)c1 | inactive: 38%
Cc1c(C(=O)OCC(=O)N2CC(C)OC(C)C2)oc2ccc(Br)cc12 (centres undefined) | inconclusive: -56%

Structure (SMILES) | activity change (PNC), negative = inhibition
CC1=NOC2(C1)/C(=N/O)CCC/C2=N\O (centres undefined) | inconclusive: -31.7%
CCC(C)NS(=O)(=O)c1ccc(NC(=O)c2ccc([N+](=O)[O-])cc2Cl)cc1 (centres undefined) | inconclusive: -30.6%
COc1cccc(-c2nnc3sc(-c4cccs4)nn23)c1 | inconclusive: -46.8%
CC(C)Cn1c(N)c(C(=O)NCc2cccs2)c2nc3ccccc3nc21 | inconclusive: -44.5%
O=S(=O)(c1cc(Cl)ccc1Cl)N1CCN(Cc2ccc3c(c2)OCO3)CC1 | inconclusive: -41.3%
COC(=O)c1ccc(OCC(=O)NC(C)(C)C)cc1 | inconclusive: -34.8%
COC(=O)C1(C(=O)OC)NOC2C(=O)N(c3ccccc3)C(=O)C21 (centres undefined) | inconclusive: -44.3%
Cn1c(SCC(=O)NCc2ccccc2)nc2ccccc21 | inactive: -1.68%
Cc1sc2ncnc(N/N=C/c3ccccc3O)c2c1C | inconclusive: -62.5%
COc1ccccc1/C=C/C(=O)N1CCC(c2ccccc2)C1 (centres undefined) | inactive: 13.5%
CCOC(=O)c1cc(CC)sc1NC(=O)COC | inconclusive: -32.6%
Cc1ccc(S(=O)(=O)/C(C#N)=C/c2c[nH]c3ccccc23)cc1 | inconclusive: -59.1%
CCOc1cc(C)c(C(C)C)cc1S(=O)(=O)N1CC(C)OC(C)C1 (centres undefined) | inconclusive: -42%
COc1ccccc1C(=O)Nc1ccc(N2CCCCC2)cc1 | inconclusive: -51.5%
Cc1ccc(C(=O)O/N=C\c2ccc(N3CCCCC3)c([N+](=O)[O-])c2)cc1 | inconclusive: -31.3%
CCCCC(NS(=O)(=O)c1ccc(C)cc1)C(=O)Oc1ccc2c3c(c(=O)oc2c1)CCC3 (centres undefined) | inconclusive: -79.3%
COc1ccc2c(c1)sc(N)[n+]2Cc1cc(C)cc2cccnc12 | inconclusive: -67.6%
O=C1C(Nc2ccccc2)=C/C(=N/S(=O)(=O)c2cccs2)c2ccccc21 | active: -81.4%
CCC(C)(C(=O)Nc1ccccc1C)N(C(=O)CNC(C)=O)c1ccccc1C (centres undefined) | inactive: 44.9%
O=C(Nc1ccc(N2CCOCC2)cc1N1CCOCC1)c1ccco1 | inconclusive: -49.1%

From PubChem BioAssay AID2417 (National Center for Advancing Translational Sciences (NCATS), 2010)
